Laboratory results taken from publication PMC3745395.
No constants are given. Whether binding was seen depends on the method and setting. In cells and extracts the contact can be indirect. Some entries that bind do so weakly or less than the wild type.

The chains behind the UniProt entries cited, without tags or fusion partners.
UniProt Q9EPK8: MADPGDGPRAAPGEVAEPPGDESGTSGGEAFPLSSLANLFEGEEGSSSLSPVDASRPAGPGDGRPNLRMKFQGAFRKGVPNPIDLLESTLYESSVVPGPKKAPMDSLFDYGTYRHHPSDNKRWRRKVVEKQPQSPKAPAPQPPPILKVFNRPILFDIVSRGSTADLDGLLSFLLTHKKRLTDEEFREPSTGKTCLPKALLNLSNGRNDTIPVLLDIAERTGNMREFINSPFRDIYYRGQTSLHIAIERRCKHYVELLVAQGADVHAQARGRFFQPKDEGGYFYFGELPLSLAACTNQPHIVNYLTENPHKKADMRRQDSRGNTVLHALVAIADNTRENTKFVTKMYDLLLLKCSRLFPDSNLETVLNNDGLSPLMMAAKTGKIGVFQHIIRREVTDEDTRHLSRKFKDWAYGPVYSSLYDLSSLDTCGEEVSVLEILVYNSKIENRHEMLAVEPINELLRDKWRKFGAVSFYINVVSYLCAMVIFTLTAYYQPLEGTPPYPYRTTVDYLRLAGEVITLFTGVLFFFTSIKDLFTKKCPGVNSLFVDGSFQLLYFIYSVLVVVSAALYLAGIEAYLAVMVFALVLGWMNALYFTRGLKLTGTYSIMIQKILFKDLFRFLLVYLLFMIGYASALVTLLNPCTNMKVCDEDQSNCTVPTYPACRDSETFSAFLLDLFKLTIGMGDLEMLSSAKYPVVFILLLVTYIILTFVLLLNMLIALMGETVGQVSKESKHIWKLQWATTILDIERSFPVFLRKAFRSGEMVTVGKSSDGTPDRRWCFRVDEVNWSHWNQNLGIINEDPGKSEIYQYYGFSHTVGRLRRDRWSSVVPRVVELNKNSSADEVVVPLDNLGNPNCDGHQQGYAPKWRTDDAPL

Tests used:
[1] = biological target: T1, TRPP2 (mouse (endogenous in orpk collecting duct cells)) (UniProt O35245); test: co-IP; orpk cilia (+) and cilia (-) cells lysed in Triton buffer; 500 ug protein with 4 ug anti-TRPP2 or anti-TRPV4 antibody overnight at 4 C, protein G beads, western blot for the other protein; n-IgG as control; for EGF treatment cells serum starved and given 10 ng/mL EGF for 30 min
T1 sequence: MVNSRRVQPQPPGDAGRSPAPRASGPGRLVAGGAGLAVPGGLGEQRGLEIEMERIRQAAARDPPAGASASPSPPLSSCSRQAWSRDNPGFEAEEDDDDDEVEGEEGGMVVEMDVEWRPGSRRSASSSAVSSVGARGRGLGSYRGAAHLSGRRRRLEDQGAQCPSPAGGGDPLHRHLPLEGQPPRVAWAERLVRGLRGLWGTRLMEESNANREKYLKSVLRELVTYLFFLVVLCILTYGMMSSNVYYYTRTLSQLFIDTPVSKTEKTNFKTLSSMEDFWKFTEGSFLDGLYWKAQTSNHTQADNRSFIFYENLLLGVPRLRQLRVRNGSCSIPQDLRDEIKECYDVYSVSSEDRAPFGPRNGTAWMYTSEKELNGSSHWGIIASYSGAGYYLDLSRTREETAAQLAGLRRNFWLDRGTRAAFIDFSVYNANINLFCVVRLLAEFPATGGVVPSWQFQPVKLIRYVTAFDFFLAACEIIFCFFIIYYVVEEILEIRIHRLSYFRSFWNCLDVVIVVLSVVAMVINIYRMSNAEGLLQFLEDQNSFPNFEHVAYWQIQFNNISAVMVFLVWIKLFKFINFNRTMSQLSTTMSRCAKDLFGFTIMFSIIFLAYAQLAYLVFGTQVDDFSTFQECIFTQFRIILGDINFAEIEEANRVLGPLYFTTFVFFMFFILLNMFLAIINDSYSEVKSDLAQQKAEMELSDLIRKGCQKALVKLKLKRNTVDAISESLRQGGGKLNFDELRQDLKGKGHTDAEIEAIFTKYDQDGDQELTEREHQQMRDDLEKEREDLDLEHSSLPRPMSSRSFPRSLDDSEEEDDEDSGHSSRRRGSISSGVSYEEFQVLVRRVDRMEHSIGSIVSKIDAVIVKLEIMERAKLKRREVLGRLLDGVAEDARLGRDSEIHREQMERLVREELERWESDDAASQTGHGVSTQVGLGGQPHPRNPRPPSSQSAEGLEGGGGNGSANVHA

[2] = biological target: T2, TRPP2 of inner medullary collecting duct (IMCD) cells (UniProt O35245); test: co-IP; endogenous proteins of IMCD cells (Figure S3b); details not shown
T2 sequence: T1 sequence

[3] = biological target: TRPV4 (mouse (endogenous in orpk collecting duct cells)) (UniProt Q9EPK8); test: co-IP; orpk cilia (+) and cilia (-) cells lysed in Triton buffer; 500 ug protein with 4 ug anti-TRPP2 or anti-TRPV4 antibody overnight at 4 C, protein G beads, western blot for the other protein; n-IgG as control; for EGF treatment cells serum starved and given 10 ng/mL EGF for 30 min

Q: With TRPV4 (from UniProt Q9EPK8 1-871) as the molecule, how does the binding [1] read?
A: Its binding is “binds”.

Q: For “TRPV4 of inner medullary collecting duct (IMCD) cells (from UniProt Q9EPK8 1-871)”, which binding [2] is on record?
A: Its binding is “binds”.

B1: TRPP2 (protein, UniProt O35245-1 1-966)
chain: T1 sequence
Q: How did the binding [3] turn out when B1 was run?
A: Its binding is “binds”.
